Reference: ChEMBL document CHEMBL3046942, “Synthesis and biological activity of new cycloalkylthiophene-Schiff bases and their Cr(III) and Zn(II) complexes” (2010)

Test system: Candida albicans
Test: Antifungal activity against Candida albicans Y-1200-NIH at 100 ug after 24 hr by agar well diffusion method
Format: functional, organism-based

NYSTATIN gave an inhibition zone (IZ) of 20 mm.
